# Assay results reported in publication PMC7596241.
# Amino acid sequences for entries named in this document (tags omitted).
# UniProt P42684: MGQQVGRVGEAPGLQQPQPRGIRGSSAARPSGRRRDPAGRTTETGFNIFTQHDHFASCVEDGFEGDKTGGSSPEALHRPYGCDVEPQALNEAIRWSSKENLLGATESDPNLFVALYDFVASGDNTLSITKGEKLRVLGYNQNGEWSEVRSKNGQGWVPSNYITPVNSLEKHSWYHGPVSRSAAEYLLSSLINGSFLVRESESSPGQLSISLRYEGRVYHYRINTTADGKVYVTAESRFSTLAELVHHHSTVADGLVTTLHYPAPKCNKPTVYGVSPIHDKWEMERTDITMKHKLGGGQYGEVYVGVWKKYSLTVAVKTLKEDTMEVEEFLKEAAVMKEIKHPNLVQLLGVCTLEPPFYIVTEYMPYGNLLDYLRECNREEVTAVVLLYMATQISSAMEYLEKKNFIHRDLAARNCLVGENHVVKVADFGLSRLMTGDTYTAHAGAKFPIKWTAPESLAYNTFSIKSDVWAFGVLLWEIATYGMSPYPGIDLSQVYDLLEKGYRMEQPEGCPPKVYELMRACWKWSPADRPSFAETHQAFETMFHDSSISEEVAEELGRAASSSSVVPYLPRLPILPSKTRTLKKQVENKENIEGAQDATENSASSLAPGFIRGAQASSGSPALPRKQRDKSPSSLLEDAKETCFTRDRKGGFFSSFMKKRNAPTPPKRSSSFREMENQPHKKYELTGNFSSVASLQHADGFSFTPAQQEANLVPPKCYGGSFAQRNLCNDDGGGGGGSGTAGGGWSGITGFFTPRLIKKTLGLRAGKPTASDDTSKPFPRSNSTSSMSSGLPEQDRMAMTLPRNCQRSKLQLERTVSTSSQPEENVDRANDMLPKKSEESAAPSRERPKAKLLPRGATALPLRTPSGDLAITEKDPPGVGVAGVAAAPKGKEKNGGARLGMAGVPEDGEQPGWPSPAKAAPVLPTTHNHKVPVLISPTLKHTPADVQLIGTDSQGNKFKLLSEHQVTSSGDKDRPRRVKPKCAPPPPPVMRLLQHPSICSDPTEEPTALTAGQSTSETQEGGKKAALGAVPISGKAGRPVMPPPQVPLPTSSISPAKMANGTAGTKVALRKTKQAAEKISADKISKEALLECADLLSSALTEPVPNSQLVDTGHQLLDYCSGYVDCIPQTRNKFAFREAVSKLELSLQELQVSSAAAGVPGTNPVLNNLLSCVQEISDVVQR
# Results are given in words; binding and its absence hold for the method and conditions named. Binding seen in cells or lysates may run through a third protein. Some entries that bind do so weakly or less than the wild type.
# Experiments:
# [1] = biological target: ABL2 (human (endogenous in melanoma cells)) (UniProt P42684); experiment: co-IP; endogenous ABL2 immunoprecipitated with an ABL2 antibody (inefficient); blots; Supplementary Fig. 6i
# [2] = biological target: ABL1 (human (endogenous in M14-BMR)) (UniProt P00519); experiment: co-IP; endogenous ABL1 immunoprecipitated (agarose-conjugated antibody, 3 h) from M14-BMR cells treated with D/T (100/20 nM), also with D/T + nilotinib (2.5 uM); TNEN buffer (50 mM Tris pH 7.5, 50 mM NaCl, 2 mM EDTA, 0.5% NP-40); rabbit IgG as isotype control; blots
substance,measurement,setting,value
CRAF (from UniProt P04049 1-648),binding,[1],binds
same,binding,[2],binds
